Reference: paper doi:10.1101/2023.08.20.554024
Results are given in words; binding and its absence hold for the method and conditions named. Some binding calls cover weakened binding; strength is not graded here.

Target: T1, SynOCP1 WT apoform (Synechocystis sp. PCC 6803) (UniProt P74102)
T1 sequence: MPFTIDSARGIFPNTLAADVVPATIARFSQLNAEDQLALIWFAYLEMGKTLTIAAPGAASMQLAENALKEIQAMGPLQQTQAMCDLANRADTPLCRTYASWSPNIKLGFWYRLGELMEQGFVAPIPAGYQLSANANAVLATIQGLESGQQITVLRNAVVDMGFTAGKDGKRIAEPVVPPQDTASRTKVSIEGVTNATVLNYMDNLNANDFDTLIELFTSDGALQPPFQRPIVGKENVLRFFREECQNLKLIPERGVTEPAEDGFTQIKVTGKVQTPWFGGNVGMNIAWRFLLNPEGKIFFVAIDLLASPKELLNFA
Test: SEC

binding: binds
B1: Fluorescence Recovery Protein from Synechocystis sp. PCC 6803 (protein, UniProt P74103 1-109)
chain: MLQTAEAPWSQAETQSAHALFRKAYQRELDGLLATVQAQASQITQIDDLWKLHDFLSAKRHEIDGKYDDRQSVIIFVFAQLLKEGLVQAEELTFLAADKQSKIKALARL
